Measurements taken from PMC6242908.

Molecular target: MBP-His6 (UniProt P0AEX9)
Assay: EMSA
Conditions: tag-only control, G9 and G6 also negative; EMSA: same buffer with BSA and RNAsin, 150 nM RNA/DNA, 2% tris-glycine agarose; recombinant protein; protein details: C-terminal His6; label: 5'-fluorescein

**Q.** Does GGGGGGGGGGGG [G12 RNA (native)] bind?
**A.** Result: no binding

Construct, isoform or probe ends are uncertain for at least one entry. A negative result means that nothing was seen under these conditions.
